Results as given in article PMC4017264, “Molecular Basis and Regulation of OTULIN-LUBAC Interaction” (Molecular Cell, 2014).
No constants are given. Whether binding was seen depends on the method and setting. Some results given as binding are weak or reduced against the parent protein; the word gives no strength.

Sequences of proteins named here, by UniProt entry; tags and fusion partners are left off. A change or cut given only in a name is not applied to a line headed by its entry.
UniProt Q96EP0: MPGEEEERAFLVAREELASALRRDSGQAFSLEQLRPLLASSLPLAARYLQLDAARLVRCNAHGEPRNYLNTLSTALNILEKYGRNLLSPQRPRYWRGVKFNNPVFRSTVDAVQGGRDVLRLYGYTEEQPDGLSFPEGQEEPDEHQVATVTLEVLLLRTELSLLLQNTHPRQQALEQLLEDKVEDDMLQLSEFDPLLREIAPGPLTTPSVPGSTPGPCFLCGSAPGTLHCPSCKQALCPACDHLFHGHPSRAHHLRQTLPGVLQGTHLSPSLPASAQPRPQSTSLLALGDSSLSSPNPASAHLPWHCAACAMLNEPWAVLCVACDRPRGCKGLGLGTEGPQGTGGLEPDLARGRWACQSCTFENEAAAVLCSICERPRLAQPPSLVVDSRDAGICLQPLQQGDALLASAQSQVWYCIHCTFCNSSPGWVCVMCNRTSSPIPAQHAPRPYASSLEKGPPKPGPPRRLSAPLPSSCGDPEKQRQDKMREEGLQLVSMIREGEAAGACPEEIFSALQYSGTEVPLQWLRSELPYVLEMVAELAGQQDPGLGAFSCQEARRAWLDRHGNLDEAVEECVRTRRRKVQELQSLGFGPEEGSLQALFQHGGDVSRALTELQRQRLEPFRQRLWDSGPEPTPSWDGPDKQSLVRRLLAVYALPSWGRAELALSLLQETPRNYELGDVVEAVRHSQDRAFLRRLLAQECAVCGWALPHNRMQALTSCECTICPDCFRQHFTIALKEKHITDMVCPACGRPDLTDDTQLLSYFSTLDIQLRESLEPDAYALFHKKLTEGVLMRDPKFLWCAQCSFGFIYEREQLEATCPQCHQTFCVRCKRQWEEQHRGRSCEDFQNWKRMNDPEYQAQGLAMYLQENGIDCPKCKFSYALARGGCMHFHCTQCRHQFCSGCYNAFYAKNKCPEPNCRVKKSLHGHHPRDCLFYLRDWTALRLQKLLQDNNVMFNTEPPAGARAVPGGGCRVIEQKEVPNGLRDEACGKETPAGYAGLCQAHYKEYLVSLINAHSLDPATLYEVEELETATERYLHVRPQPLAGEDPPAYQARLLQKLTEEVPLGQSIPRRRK
UniProt Q96BN8: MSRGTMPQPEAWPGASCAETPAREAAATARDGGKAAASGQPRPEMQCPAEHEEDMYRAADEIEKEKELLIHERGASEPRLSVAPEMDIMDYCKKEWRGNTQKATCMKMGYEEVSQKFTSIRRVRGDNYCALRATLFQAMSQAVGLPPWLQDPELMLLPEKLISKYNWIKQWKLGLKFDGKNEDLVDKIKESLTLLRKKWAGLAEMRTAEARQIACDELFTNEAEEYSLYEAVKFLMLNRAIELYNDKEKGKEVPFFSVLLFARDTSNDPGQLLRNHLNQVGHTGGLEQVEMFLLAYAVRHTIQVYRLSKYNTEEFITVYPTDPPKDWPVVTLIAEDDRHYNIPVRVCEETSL

B1: endogenous SHARPIN (protein, UniProt Q9H0F6 1-387)
chain: MAPPAGGAAAAASDLGSAAVLLAVHAAVRPLGAGPDAEAQLRRLQLSADPERPGRFRLELLGAGPGAVNLEWPLESVSYTIRGPTQHELQPPPGGPGTLSLHFLNPQEAQRWAVLVRGATVEGQNGSKSNSPPALGPEACPVSLPSPPEASTLKGPPPEADLPRSPGNLTEREELAGSLARAIAGGDEKGAAQVAAVLAQHRVALSVQLQEACFPPGPIRLQVTLEDAASAASAASSAHVALQVHPHCTVAALQEQVFSELGFPPAVQRWVIGRCLCVPERSLASYGVRQDGDPAFLYLLSAPREAPATGPSPQHPQKMDGELGRLFPPSLGLPPGPQPAASSLPSPLQPSWSCPSCTFINAPDRPGCEMCSTQRPCTWDPLAAAST
B2: PNGase PUB domain (aa 11–109) (domain or fragment, UniProt Q96IV0 11-109)
chain: GSASPAVAELCQNTPETFLEASKLLLTYADNILRNPNDEKYRSIRIGNTAFSTRLLPVRGAVECLFEMGFEEGETHLIFPKKASVEQLQKIRDLIAIER
B3: UBXD1 PUB domain (aa 150–264) (domain or fragment, UniProt Q9BZV1 150-264)
chain: STDPVAASIMKIYTFNKDQDRVKLGVDTIAKYLDNIHLHPEEEKYRKIKLQNKVFQERINCLEGTHEFFEAIGFQKVLLPAQDQEDPEEFYVLSETTLAQPQSLERHKEQLLAAE

What was measured:
[1] = target: endogenous HOIP (human (endogenous in HEK293T, HEK293ET, U2OS, RPE1)) (UniProt Q96EP0); test: SEC; gel filtration of U2OS and RPE1 cell lysates (Figure S8)
[2] = target: endogenous HOIP (human (endogenous in HEK293T, HEK293ET, U2OS, RPE1)) (UniProt Q96EP0); test: SEC; gel filtration of HEK293ET cell lysates (phosphatases inhibited); fractions probed with antibodies
[3] = target: fluorescently labeled OTULIN PIM peptide (aa 49–67) M55L (UniProt Q96BN8); test: fluorescence polarisation; serially diluted PUB domains and HOIP variants mixed with an equal volume of 100 nM FITC-Ahx-labeled peptide; one-site binding model; triplicate; both purified
[4] = target: FITC-Ahx-labeled OTULIN PIM peptide (aa 49–67) (UniProt Q96BN8); test: as above

Row | Binder | binding [1] | binding [2] | binding [3] | binding [4]
1 | B1 | binds | binds |  | 
2 | B2 |  |  | no binding | no binding
3 | B3 |  |  |  | no binding
